From PMC13071080
Results are given in words; binding and its absence hold for the method and conditions named. Binding seen in cells or lysates may run through a third protein. Some binding calls cover weakened binding; strength is not graded here. Blank lines part the entries; values can stand above or below the molecule they belong to.

Chains of the proteins cited; added tags and fusions are not shown. Residues count along the entry.
UniProt O75094, residues 34-1523: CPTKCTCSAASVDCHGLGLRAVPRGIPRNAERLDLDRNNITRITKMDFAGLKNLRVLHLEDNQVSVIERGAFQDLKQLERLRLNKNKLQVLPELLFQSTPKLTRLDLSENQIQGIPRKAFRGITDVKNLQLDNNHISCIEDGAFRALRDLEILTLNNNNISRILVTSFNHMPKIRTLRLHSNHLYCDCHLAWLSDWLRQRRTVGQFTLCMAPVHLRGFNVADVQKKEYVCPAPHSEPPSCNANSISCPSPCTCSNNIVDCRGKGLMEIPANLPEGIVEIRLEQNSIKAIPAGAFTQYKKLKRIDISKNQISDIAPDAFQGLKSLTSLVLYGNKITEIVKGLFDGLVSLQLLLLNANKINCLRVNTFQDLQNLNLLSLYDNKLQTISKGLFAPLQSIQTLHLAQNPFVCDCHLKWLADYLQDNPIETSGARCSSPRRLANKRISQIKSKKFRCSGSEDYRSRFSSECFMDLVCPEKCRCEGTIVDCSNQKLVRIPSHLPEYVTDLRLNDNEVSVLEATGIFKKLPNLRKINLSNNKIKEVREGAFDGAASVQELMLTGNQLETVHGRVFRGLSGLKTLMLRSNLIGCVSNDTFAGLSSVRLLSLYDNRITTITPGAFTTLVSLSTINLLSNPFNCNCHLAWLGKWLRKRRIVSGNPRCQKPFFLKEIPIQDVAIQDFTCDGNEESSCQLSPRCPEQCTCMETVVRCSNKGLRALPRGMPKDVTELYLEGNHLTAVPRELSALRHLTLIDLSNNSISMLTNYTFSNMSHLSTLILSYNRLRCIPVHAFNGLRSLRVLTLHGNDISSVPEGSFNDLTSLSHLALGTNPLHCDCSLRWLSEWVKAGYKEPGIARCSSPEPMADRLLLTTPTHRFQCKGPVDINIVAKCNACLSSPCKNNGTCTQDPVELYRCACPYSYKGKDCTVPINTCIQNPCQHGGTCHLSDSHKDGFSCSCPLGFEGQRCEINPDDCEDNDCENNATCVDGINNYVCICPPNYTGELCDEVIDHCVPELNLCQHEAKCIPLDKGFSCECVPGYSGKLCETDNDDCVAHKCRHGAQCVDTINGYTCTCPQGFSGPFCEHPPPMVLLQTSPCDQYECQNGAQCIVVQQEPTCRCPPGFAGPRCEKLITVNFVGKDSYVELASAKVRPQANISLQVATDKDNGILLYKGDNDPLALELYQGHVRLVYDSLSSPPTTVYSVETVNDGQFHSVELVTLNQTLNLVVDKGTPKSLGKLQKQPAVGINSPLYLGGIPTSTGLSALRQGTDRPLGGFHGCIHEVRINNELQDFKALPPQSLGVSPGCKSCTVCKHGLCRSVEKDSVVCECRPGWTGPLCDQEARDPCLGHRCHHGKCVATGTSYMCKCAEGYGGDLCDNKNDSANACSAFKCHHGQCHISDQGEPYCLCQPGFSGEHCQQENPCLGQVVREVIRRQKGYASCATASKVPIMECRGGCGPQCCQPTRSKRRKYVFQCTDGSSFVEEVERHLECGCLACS
UniProt Q9HCK4, residues 22-1378: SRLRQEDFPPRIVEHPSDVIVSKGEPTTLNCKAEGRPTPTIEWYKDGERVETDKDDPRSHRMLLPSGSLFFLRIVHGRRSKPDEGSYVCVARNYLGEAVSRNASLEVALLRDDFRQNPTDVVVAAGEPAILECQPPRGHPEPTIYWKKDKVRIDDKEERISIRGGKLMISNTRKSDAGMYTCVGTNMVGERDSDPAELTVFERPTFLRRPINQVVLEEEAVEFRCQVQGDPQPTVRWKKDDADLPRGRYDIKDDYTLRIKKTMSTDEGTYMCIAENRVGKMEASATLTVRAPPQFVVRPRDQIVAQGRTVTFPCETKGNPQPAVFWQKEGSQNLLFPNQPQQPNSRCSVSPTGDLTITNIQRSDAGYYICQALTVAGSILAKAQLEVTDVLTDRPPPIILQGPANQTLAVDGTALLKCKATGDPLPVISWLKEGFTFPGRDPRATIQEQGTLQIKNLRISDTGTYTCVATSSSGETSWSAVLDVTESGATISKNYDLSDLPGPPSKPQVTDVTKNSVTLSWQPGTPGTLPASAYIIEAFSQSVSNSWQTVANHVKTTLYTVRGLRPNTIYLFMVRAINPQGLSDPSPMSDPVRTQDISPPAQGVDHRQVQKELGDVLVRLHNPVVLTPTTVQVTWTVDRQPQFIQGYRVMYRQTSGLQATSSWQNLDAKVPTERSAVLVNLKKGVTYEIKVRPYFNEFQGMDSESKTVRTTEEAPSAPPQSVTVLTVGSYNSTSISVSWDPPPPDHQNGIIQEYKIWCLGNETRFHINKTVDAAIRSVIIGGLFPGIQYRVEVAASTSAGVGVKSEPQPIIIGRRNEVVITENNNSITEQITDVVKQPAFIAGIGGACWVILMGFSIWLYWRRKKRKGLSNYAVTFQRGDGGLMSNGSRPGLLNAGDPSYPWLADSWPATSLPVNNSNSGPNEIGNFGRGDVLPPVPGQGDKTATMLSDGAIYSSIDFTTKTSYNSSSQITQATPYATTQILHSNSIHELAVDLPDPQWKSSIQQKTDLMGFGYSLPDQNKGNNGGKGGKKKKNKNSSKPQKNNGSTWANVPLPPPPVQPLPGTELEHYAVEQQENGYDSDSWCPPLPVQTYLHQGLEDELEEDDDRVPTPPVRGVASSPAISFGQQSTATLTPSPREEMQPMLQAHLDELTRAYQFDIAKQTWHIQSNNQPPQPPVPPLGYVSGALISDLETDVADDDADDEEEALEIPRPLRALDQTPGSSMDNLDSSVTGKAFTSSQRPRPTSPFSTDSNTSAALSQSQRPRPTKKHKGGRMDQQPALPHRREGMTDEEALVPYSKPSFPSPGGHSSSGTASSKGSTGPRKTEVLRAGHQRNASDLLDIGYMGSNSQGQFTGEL

Biological target: SLIT3 (human (endogenous in SCAP)) (UniProt O75094)
Experiment: co-IP; immunoprecipitation of SLIT3 from SCAP, ROBO2 and ROBO3 detected in the precipitate; cells with or without rhSLIT3 treatment (more ROBO2 and ROBO3 co-precipitated after rhSLIT3)

binding: binds
Molecule: ROBO2 (from UniProt Q9HCK4 22-1378) (receptor)

binding: binds
B1: ROBO3 (receptor, UniProt Q96MS0 21-1386)
chain: GDISNSSELLLGFNSSLAALNHTLLPPGDPSLNGSRVGPEDAMPRIVEQPPDLLVSRGEPATLPCRAEGRPRPNIEWYKNGARVATVREDPRAHRLLLPSGALFFPRIVHGRRARPDEGVYTCVARNYLGAAASRNASLEVAVLRDDFRQSPGNVVVAVGEPAVLECVPPRGHPEPSVSWRKDGARLKEEEGRITIRGGKLMMSHTLKSDAGMYVCVASNMAGERESAAAEVMVLERPSFLRRPVNQVVLADAPVTFLCEVKGDPPPRLRWRKEDGELPTGRYEIRSDHSLWIGHVSAEDEGTYTCVAENSVGRAEASGSLSVHVPPQLVTQPQDQMAAPGESVAFQCETKGNPPPAIFWQKEGSQVLLFPSQSLQPTGRFSVSPRGQLNITAVQRGDAGYYVCQAVSVAGSILAKALLEIKGASLDGLPPVILQGPANQTLVLGSSVWLPCRVTGNPQPSVRWKKDGQWLQGDDLQFKTMANGTLYIANVQEMDMGFYSCVAKSSTGEATWSGWLKMREDWGVSPDPPTEPSSPPGAPSQPVVTEITKNSITLTWKPNPQTGAAVTSYVIEAFSPAAGNTWRTVADGVQLETHTVSGLQPNTIYLFLVRAVGAWGLSEPSPVSEPVRTQDSSPSRPVEDPWRGQQGLAEVAVRLQEPIVLGPRTLQVSWTVDGPVQLVQGFRVSWRVAGPEGGSWTMLDLQSPSQQSTVLRGLPPGTQIQIKVQAQGQEGLGAESLSVTRSIPEEAPSGPPQGVAVALGGDGNSSITVSWEPPLPSQQNGVITEYQIWCLGNESRFHLNRSAAGWARSAMLRGLVPGLLYRTLVAAATSAGVGVPSAPVLVQLPSPPDLEPGLEVGAGLAVRLARVLREPAFLAGSGAACGALLLGLCAALYWRRKQRKELSHYTASFAYTPAVSFPHSEGLSGASSRPPMGLGPAPYSWLADSWPHPSRSPSAQEPRGSCCPSNPDPDDRYYNEAGISLYLAQTARGTAAPGEGPVYSTIDPAGEELQTFHGGFPQHPSGDLGPWSQYAPPEWSQGDSGAKGGKVKLLGKPVQMPSLNWPEALPPPPPSCELSCLEGPEEELEGSSEPEEWCPPMPERSHLTEPSSSGGCLVTPSRRETPSPTPSYGQQSTATLTPSPPDPPQPPTDMPHLHQMPRRVPLGPSSPLSVSQPMLGIREARPAGLGAGPAASPHLSPSPAPSTASSAPGRTWQGNGEMTPPLQGPRARFRKKPKALPYRRENSPGDLPPPPLPPPEEEASWALELRAAGSMSSLERERSGERKAVQAVPLAAQRVLHPDEEAWLPYSRPSFLSRGQGTSTCSTAGSNSSRGSSSSRGSRGPGRSRSRSQSRSQSQRPGQKRREEPR
